Test results reported in paper PMC7509492 (Frontiers in Bioengineering and Biotechnology, 2020).
Some peptides are written in HELM: one residue between dots, names in brackets for other building blocks, links after the first $.

Test: general procedure: Fmoc solid-phase peptide synthesis; Fmoc-Rink-amide ChemMatrix resin; HBTU/DIEA; DIPCDI for fluorophore coupling
Settings: whole synthesis, HPLC, scale of the general procedure 0.1 mmol

Row | Substance | purity (crude or final not stated) [%]
1 | TF3-SGTQEEY-amide | 99.3
2 | PEPTIDE1{S.G.T.Q.E.E.Y.[am]}$$$$V2.0 | 99.5
3 | PEPTIDE1{W.R.R.R.Y.R.R.W.R.R.R.R.R.W.R.R.R.P.R.R.[am]}$$$$V2.0 | 99.1
4 | Q570-KKRLKKIFKKPMVIGVTIPF-amide | 96.4
5 | TF3-WRRRYRRWRRRRRWRRRPRR-amide | 97.0
6 | CF-WRRRYRRWRRRRRWRRRPRR-amide | 98.1
7 | PEPTIDE1{[rhb].S.G.T.Q.E.E.Y.[am]}$$$$V2.0 | 95.3
8 | PEPTIDE1{[rhb].K.K.R.L.K.K.I.F.K.K.P.M.V.I.G.V.T.I.P.F.[am]}$$$$V2.0 | 99.1
9 | CF-AGILKRW-amide | 96.3
10 | TF3-KKRLKKIFKKPMVIGVTIPF-amide | 95.2
11 | Q570-SGTQEEY-amide | 99.6
12 | CF-SGTQEEY-amide | 99.1
13 | TF3-AGILKRW-amide | 95.2
14 | PEPTIDE1{[rhb].W.R.R.R.Y.R.R.W.R.R.R.R.R.W.R.R.R.P.R.R.[am]}$$$$V2.0 | 98.5
15 | PEPTIDE1{K.K.R.L.K.K.I.F.K.K.P.M.V.I.G.V.T.I.P.F.[am]}$$$$V2.0 | 98.8
16 | Q570-AGILKRW-amide | 99.6
17 | CF-KKRLKKIFKKPMVIGVTIPF-amide | 96.6
18 | PEPTIDE1{A.G.I.L.K.R.W.[am]}$$$$V2.0 | 99.5
19 | PEPTIDE1{[rhb].A.G.I.L.K.R.W.[am]}$$$$V2.0 | 99.4
20 | Q570-WRRRYRRWRRRRRWRRRPRR-amide | 99.7
